Literature values, collected in paper PMC8762671 (Chemical research in toxicology, 2021).
Like-named read-outs stand apart in the source and are kept apart here.

Tested on: human iPSC-derived cardiomyocytes
Conditions: ref [36], cited from earlier work

SMILES: CC(C)NCC(O)COc1cccc2ccccc12 (centres unmarked) [propranolol]
- potency (EC50 in BPM) compared to the standard donor 1434 (donor 1083): more potent
- potency (EC50 in BPM) compared to the standard donor 1434 (donor 1392): less potent
